These are yes or no findings as the source states them, for the method shown. Binding seen in cells or lysates may run through a third protein. Some results given as binding are weak or reduced against the parent protein; the word gives no strength. For some assays here: Sequences can lack the tags named with a protein.

Chains of the proteins cited; added tags and fusions are not shown.
UniProt P10361: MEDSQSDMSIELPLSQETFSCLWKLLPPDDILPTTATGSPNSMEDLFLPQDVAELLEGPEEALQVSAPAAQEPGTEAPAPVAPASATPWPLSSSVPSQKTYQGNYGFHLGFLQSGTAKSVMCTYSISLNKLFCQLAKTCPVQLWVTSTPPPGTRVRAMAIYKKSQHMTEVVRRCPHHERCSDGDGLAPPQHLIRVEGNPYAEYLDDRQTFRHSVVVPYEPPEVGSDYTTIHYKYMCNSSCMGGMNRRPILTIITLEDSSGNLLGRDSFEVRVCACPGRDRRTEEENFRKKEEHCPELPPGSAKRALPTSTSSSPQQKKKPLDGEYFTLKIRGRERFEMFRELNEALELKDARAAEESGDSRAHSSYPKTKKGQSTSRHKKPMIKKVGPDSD

Experimental findings from publication PMC5059862 are described below.

The target in test [1] is p53-GFP (p53, GFP-tagged, from pEGFP-p53) (UniProt P04637). As to the kind of experiment: co-IP; HEK293 cells transfected with pcDNA-ANXA1 (His-tagged) and pEGFP-p53 (GFP-tagged), treated without or with OGD/R; lysates (20 mM HEPES, 400 mM KCl, 5% glycerol, 5 mM EDTA, 0.4% NP-40) incubated with anti-GFP antibody overnight at 4 °C, protein A/G PLUS-Agarose beads.
Test [2] deals with p53, endogenous in primary cultured rat neurons (rat (endogenous in primary cultured cortical neurons)) (UniProt P10361). Briefly: co-IP; endogenous proteins of primary cultured rat neurons treated without or with OGD/R, subcellular location of the interaction examined; lysates incubated with anti-p53 antibody overnight at 4 °C, protein A/G PLUS-Agarose beads.

B1: ANXA1-His (annexin 1, His-tagged, from pcDNA-ANXA1) (protein, UniProt P04083 1-346)
chain: MAMVSEFLKQAWFIENEEQEYVQTVKSSKGGPGSAVSPYPTFNPSSDVAALHKAIMVKGVDEATIIDILTKRNNAQRQQIKAAYLQETGKPLDETLKKALTGHLEEVVLALLKTPAQFDADELRAAMKGLGTDEDTLIEILASRTNKEIRDINRVYREELKRDLAKDITSDTSGDFRNALLSLAKGDRSEDFGVNEDLADSDARALYEAGERRKGTDVNVFNTILTTRSYPQLRRVFQKYTKYSKHDMNKVLDLELKGDIEKCLTAIVKCATSKPAFFAEKLHQAMKGVGTRHKALIRIMVSRSEIDMNDIKAFYQKMYGISLCQAILDETKGDYEKILVALCGGN
Regarding B1, the binding result in test [1] is “binds”.

B2: annexin 1 (ANXA1), endogenous in primary cultured rat neurons (protein, UniProt P07150 1-346)
chain: MAMVSEFLKQACYIEKQEQEYVQAVKSYKGGPGSAVSPYPSFNPSSDVAALHKAIMVKGVDEATIIDILTKRTNAQRQQIKAAYLQETGKPLDETLKKALTGHLEEVVLAMLKTPAQFDADELRAAMKGLGTDEDTLIEILTTRSNQQIREITRVYREELKRDLAKDITSDTSGDFRNALLALAKGDRCEDMSVNQDLADTDARALYEAGERRKGTDVNVFNTILTTRSYPHLRKVFQNYRKYSQHDMNKALDLELKGDIEKCLTTIVKCATSTPAFFAEKLYEAMKGAGTRHKTLIRIMVSRSEIDMNEIKVFYQKKYGIPLCQAILDETKGDYEKILVALCGGN
Consider B2, for which the binding result in test [2] is “binds”.
